Measured data: PubChem BioAssay AID602196 (INSERM, 2012)
Test: 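Knock-downs that protect lung cancer cells from cisplatin or sensitise them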. System: human A549 lung cancer cells. Reagent: siRNA pair against human genes. Duration: 48 h transfection before cisplatin; time from cisplatin to read-out not stated. Challenge: cisplatin at a dose killing half of control-siRNA cells; exact dose and duration not given. Read-out: 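Shift in cisplatin death relative to control siRNA, from -50 (all cells die) to +50 (no cells die); siRNAs harmful on their own scored 0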. Reading the numbers: two-siRNA summed score (-2 to +2): higher = both siRNAs protect from cisplatin killing; -2 means both sensitise; mean protection from cisplatin (shift in death): higher = protection from cisplatin killing. Rule for the call: 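Each siRNA scores 0 if harmful alone by LDH or WST-1, otherwise +1 if it reduces and -1 if it increases cisplatin killing; a gene is active when both siRNAs agree (sum +2 or -2)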. Calls: active = both siRNAs shift cisplatin killing the same way; inactive = no consistent shift, or siRNA harmful alone.
Shown is one part, drawn at random, of about 23,000 deposited reagents. 455 of them (2%) count as active. 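Active includes both protection and sensitisation; some change values fall well beyond the stated -50 to +50 range.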 Unmarked entries are inactive. Further read-outs or replicates are left out here. Reagent sequences are not shown. The record does not give: the amount of reagent.

For STX17-DT (STX17 divergent transcript), the entry reads two-siRNA summed score (-2 to +2) = 0; mean protection from cisplatin (shift in death) (%) = 8.2.
With knock-down of MED25 (mediator complex subunit 25), the screen gave two-siRNA summed score (-2 to +2) = 0; mean protection from cisplatin (shift in death) (%) = 5.7.
EXOC3L4 (exocyst complex component 3 like 4) gave two-siRNA summed score (-2 to +2) = 1; mean protection from cisplatin (shift in death) (%) = 9.
RMND5A (required for meiotic nuclear division 5 homolog A) scored two-siRNA summed score (-2 to +2) = 0; mean protection from cisplatin (shift in death) (%) = 4.1.
Knock-down of LUC7L3 (LUC7 like 3 pre-mRNA splicing factor) resulted in: two-siRNA summed score (-2 to +2) = 0; mean protection from cisplatin (shift in death) (%) = -0.9.
With knock-down of MBIP (MAP3K12 binding inhibitory protein 1), the record shows two-siRNA summed score (-2 to +2) = 0; mean protection from cisplatin (shift in death) (%) = 4.9.
Against ZNF408 (zinc finger protein 408) the deposit lists two-siRNA summed score (-2 to +2) = 0; mean protection from cisplatin (shift in death) (%) = 0.5.
RREB1 (ras responsive element binding protein 1) showed two-siRNA summed score (-2 to +2) = 0; mean protection from cisplatin (shift in death) (%) = 6.
Silencing of PNISR (PNN interacting serine and arginine rich protein) came out at: two-siRNA summed score (-2 to +2) = 0; mean protection from cisplatin (shift in death) (%) = 6.7.
Against SEC14L2 (SEC14 like lipid binding 2), the values are two-siRNA summed score (-2 to +2) = 0; mean protection from cisplatin (shift in death) (%) = -0.6.
Against NMS (neuromedin S), the entry reads two-siRNA summed score (-2 to +2) = 0; mean protection from cisplatin (shift in death) (%) = 17.7.
Against RHOBTB2 (Rho related BTB domain containing 2), the values are two-siRNA summed score (-2 to +2) = 2 (active); mean protection from cisplatin (shift in death) (%) = 19.8.
With knock-down of HTR7 (5-hydroxytryptamine receptor 7), the record shows two-siRNA summed score (-2 to +2) = -1; mean protection from cisplatin (shift in death) (%) = -2.7.
For PCIF1 (phosphorylated CTD interacting factor 1), the entry reads two-siRNA summed score (-2 to +2) = 1; mean protection from cisplatin (shift in death) (%) = 1.1.
TRIM16 (tripartite motif containing 16) showed two-siRNA summed score (-2 to +2) = -1; mean protection from cisplatin (shift in death) (%) = -12.6.
ZNF430 (zinc finger protein 430) scored two-siRNA summed score (-2 to +2) = 0; mean protection from cisplatin (shift in death) (%) = 2.6.
After knock-down of RNF10 (ring finger protein 10) the results were two-siRNA summed score (-2 to +2) = 0; mean protection from cisplatin (shift in death) (%) = -5.
Silencing of PCGF6 (polycomb group ring finger 6) resulted in: two-siRNA summed score (-2 to +2) = 0; mean protection from cisplatin (shift in death) (%) = 0.1.
After knock-down of MIER2 (MIER family member 2), the record shows two-siRNA summed score (-2 to +2) = 0; mean protection from cisplatin (shift in death) (%) = -2.1.
Knock-down of PPP6R3 (protein phosphatase 6 regulatory subunit 3) came out at: two-siRNA summed score (-2 to +2) = -1; mean protection from cisplatin (shift in death) (%) = -8.9.
Depletion of TCEA3 (transcription elongation factor A3) came out at: two-siRNA summed score (-2 to +2) = 0; mean protection from cisplatin (shift in death) (%) = 1.2.

Targets listed so far whose gene name begins with P or p:
PNISR (PNN interacting serine and arginine rich protein): two-siRNA summed score (-2 to +2) = 0; mean protection from cisplatin (shift in death) (%) = 6.7
PCIF1 (phosphorylated CTD interacting factor 1): two-siRNA summed score (-2 to +2) = 1; mean protection from cisplatin (shift in death) (%) = 1.1
PCGF6 (polycomb group ring finger 6): two-siRNA summed score (-2 to +2) = 0; mean protection from cisplatin (shift in death) (%) = 0.1
PPP6R3 (protein phosphatase 6 regulatory subunit 3): two-siRNA summed score (-2 to +2) = -1; mean protection from cisplatin (shift in death) (%) = -8.9
